Measurements taken from patent US10653717B2, “Antibiotic compositions” (priority 2016, dated 2020).

Columns and labels:
[1] = tested on: KP-1: Klebsiella pneumonia subsp. pneumonia 13#; assay: Drug sensitivity of clinical isolated strain; type: cell-based; conditions: KP-1 (Table 3)
[2] = tested on: KP-2: K. pneumonia subsp. pneumonia 0322#; assay: Drug sensitivity of clinical isolated strain; type: cell-based, Klebsiella pneumonia
Further: key: R: resistant; S: sensitive.

Nc1ccc(S(N)(=O)=O)cc1 [Sulfanilamide]
Drug sensitivity [1]: S
Drug sensitivity ([2]; KP-2 (Table 3)): R
Drug sensitivity ([2]; KP-2 (table of Example 3)): R
